Assay results: the supplement of paper PMC12819154, “High-throughput peptide-centric local stability assay extends protein–ligand identification to membrane proteins, tissues and bacteria” (Nature Structural & Molecular Biology, 2025)
This is one part of the list. Most values lie at the level of the controls, where differences are scatter.

Chains of the proteins cited; added tags and fusions are not shown. Lines headed by an entry give the natural chain unless they say otherwise; changes in a name come on top.
UniProt Q8N7N6: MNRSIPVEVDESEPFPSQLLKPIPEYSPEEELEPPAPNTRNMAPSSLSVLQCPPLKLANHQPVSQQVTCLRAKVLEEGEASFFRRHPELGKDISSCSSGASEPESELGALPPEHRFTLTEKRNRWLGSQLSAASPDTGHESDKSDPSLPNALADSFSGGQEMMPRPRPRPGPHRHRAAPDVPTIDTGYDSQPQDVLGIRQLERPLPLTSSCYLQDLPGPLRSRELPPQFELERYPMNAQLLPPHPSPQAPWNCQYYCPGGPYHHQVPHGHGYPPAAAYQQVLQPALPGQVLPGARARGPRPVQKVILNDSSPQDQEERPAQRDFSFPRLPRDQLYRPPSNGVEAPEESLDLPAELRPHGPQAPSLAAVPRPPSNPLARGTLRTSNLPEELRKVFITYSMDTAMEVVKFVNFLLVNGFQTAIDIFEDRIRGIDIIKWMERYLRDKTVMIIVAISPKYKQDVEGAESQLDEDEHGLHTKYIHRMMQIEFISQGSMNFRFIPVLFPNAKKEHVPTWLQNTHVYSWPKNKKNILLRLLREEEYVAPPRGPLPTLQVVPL
UniProt Q8K3W3, whole entry: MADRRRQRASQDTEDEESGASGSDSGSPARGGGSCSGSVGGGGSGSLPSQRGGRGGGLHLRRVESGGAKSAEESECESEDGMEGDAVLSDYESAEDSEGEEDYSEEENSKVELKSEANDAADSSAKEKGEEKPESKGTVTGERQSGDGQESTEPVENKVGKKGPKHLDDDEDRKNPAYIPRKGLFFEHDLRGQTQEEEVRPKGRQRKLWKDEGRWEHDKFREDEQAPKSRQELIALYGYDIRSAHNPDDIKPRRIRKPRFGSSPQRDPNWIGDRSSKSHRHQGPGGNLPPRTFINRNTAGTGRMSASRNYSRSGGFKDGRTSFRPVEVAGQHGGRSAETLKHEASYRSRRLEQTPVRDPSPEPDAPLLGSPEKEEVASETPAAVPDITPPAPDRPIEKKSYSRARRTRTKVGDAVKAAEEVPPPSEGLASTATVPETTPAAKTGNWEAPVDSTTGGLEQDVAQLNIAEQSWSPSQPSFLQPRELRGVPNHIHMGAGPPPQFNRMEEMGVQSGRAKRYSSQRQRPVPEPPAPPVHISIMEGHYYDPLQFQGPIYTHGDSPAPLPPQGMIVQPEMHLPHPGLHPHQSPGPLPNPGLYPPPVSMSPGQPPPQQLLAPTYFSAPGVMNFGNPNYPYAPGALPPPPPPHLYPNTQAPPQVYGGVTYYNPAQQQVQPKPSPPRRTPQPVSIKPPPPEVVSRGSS
UniProt Q8K274: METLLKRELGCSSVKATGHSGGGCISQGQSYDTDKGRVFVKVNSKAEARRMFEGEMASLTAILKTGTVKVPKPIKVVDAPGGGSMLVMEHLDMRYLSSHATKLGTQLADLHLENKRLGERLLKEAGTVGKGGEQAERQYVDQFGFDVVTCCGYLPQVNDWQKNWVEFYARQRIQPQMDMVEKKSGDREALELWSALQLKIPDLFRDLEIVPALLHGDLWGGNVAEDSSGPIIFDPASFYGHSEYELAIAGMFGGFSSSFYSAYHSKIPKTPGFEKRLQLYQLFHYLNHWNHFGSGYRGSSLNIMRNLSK
UniProt Q8K1J6: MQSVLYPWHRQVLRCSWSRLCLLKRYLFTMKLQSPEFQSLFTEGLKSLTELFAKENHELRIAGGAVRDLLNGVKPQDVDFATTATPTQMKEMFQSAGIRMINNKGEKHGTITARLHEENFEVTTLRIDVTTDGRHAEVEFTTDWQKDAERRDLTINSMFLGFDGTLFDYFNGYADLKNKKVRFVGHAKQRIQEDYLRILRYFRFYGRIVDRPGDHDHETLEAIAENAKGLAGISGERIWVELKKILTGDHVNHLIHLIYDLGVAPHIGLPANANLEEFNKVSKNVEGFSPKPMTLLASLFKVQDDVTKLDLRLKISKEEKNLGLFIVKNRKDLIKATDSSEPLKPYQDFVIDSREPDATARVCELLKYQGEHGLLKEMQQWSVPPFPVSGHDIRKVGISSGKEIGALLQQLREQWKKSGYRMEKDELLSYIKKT
UniProt Q8R0J4: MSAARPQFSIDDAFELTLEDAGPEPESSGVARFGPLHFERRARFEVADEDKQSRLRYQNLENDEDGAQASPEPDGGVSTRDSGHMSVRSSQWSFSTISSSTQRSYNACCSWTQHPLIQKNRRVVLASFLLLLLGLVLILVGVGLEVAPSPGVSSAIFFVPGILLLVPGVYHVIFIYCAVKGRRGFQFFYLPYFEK
UniProt Q8K4Q8: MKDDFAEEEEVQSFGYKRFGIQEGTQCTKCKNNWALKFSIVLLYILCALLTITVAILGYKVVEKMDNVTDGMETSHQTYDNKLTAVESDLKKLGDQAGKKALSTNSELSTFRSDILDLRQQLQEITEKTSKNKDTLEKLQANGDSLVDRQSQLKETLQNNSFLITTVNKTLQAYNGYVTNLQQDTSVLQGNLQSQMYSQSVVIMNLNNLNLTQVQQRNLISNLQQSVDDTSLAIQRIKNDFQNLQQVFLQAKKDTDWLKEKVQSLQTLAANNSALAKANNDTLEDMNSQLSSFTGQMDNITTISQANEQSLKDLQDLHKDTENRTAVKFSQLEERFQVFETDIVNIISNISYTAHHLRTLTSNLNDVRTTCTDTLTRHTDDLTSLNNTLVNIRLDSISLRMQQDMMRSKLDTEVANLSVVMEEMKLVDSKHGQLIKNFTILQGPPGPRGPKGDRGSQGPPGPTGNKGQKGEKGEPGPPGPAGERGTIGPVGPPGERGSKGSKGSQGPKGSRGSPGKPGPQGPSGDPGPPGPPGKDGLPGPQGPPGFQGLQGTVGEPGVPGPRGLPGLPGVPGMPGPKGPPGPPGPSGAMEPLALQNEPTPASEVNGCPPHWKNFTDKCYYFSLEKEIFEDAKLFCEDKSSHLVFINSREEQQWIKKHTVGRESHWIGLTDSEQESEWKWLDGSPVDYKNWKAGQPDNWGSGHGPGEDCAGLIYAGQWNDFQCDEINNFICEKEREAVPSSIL
UniProt Q8R0T6: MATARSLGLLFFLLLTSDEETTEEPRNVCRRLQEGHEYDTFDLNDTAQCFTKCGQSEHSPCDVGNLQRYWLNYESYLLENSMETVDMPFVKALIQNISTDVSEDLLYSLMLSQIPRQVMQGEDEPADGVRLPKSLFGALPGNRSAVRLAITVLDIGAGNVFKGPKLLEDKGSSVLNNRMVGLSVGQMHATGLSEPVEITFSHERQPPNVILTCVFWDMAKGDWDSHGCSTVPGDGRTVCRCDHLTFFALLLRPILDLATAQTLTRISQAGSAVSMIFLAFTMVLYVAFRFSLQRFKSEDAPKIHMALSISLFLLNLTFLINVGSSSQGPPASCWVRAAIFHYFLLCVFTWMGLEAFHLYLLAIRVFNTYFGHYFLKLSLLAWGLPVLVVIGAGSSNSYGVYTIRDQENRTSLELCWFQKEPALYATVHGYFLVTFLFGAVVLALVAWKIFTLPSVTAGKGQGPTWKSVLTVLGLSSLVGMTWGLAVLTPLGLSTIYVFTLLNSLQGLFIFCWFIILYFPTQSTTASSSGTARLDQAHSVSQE
UniProt Q8R1F1: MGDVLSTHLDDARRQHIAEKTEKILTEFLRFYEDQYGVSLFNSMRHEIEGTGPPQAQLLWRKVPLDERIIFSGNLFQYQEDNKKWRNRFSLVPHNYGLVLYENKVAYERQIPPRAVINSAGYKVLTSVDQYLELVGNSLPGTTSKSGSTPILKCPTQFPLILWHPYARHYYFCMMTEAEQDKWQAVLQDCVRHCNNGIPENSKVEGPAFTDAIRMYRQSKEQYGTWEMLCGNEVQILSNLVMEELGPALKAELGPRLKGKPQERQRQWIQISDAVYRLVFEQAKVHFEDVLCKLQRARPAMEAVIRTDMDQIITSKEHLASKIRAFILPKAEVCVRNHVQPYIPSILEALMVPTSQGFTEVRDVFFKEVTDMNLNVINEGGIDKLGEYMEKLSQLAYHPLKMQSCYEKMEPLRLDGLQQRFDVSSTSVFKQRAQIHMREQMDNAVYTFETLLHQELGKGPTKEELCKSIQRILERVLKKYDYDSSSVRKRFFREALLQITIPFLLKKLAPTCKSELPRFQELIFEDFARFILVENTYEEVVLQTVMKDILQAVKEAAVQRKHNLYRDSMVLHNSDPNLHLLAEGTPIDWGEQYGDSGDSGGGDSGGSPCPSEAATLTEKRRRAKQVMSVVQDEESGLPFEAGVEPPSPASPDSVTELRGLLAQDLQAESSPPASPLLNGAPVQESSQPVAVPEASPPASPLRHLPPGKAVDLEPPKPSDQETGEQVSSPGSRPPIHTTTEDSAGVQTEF
UniProt Q8K370: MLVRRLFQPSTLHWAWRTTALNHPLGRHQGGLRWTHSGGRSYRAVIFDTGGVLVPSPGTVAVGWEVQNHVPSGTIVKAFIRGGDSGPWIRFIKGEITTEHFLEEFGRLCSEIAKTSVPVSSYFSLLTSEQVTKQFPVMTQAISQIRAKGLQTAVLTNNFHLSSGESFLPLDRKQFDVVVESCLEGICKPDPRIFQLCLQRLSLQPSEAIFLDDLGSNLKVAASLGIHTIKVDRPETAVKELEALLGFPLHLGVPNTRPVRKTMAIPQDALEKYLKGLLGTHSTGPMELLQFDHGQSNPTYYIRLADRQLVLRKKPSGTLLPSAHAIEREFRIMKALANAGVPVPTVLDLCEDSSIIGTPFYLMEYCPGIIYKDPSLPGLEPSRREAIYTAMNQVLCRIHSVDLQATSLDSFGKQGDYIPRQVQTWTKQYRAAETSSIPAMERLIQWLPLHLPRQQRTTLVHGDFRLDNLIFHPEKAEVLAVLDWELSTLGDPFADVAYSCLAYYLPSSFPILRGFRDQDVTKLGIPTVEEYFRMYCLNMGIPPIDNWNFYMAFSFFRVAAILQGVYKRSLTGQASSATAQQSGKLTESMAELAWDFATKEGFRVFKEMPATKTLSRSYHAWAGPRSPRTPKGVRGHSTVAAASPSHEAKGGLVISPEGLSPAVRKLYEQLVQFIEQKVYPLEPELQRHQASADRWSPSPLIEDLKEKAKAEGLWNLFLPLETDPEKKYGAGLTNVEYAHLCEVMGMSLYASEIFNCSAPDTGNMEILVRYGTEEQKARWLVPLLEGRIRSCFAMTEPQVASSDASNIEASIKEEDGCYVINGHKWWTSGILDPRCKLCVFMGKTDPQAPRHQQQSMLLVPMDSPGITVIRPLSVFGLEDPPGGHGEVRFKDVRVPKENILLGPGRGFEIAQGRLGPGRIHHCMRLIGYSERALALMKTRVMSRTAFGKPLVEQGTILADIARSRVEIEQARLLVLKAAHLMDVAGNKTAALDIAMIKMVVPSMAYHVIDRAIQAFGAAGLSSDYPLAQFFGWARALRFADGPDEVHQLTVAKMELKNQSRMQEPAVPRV
UniProt Q8QZY1, whole entry: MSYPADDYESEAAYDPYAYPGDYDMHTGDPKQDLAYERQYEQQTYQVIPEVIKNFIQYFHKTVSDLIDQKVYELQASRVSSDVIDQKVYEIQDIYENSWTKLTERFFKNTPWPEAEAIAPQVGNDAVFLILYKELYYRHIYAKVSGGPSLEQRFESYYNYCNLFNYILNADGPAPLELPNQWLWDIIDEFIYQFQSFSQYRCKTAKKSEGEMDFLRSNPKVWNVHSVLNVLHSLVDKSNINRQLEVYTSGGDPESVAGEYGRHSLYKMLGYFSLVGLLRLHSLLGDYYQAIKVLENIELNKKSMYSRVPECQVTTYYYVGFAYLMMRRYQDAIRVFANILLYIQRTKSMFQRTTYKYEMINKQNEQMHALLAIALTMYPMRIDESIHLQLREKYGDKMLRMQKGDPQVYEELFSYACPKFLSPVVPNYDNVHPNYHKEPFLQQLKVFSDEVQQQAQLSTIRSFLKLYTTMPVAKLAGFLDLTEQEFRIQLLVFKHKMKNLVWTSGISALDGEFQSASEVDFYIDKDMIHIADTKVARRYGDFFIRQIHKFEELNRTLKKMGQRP
UniProt Q8R0X7: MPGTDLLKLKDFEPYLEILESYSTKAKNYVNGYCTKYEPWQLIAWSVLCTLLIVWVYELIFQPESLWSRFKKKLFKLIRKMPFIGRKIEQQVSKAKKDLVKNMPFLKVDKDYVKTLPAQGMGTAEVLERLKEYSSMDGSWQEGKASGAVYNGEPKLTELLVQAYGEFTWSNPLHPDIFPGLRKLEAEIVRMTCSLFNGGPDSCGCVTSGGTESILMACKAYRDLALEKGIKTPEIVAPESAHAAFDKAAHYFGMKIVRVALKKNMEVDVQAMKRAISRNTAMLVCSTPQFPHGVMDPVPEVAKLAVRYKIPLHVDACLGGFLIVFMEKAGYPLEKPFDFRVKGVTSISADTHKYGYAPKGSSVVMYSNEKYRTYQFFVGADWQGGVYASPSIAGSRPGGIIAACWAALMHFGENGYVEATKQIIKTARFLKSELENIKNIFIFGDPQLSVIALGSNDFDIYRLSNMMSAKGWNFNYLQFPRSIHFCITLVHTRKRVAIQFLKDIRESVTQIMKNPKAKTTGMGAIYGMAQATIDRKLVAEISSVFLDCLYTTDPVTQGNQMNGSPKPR

What follows are targets tested with CN[C@@H]1C[C@H]2O[C@@](C)([C@@H]1OC)n1c3ccccc3c3c4c(c5c6ccccc6n2c5c31)C(=O)NC4 [staurosporine] (assay: log2 fold change of tryptic peptide abundance, ligand vs vehicle (limited proteolysis) (log2 ratio); higher = more trypsin-susceptible (destabilized)). Conditions: ligand concentration: 20 uM; sample: mouse liver crude lysate; replicate design: treated separately.
Target “UniProt Q8N7N6 (peptide sequence: IRGIDIIK, peptide start residue: 428)” has a log2 fold change of -0.0982.
With “UniProt Q8K3W3 (peptide sequence: SAETLKHEASYR, peptide start residue: 336)” the log2 fold change was 0.231.
With “UniProt Q8K274 (peptide sequence: GSSLNIMR, peptide start residue: 298)” the log2 fold change was -0.175.
In the case of “UniProt Q8K1J6 (peptide sequence: MEKDELLSYIK, peptide start residue: 422)”, the log2 fold change is reported as -0.111.
Work on “UniProt Q8R0J4 (peptide sequence: ARFEVADEDKQSR, peptide start residue: 42)” yielded a log2 fold change of 0.18.
For “UniProt Q8K4Q8 (peptide sequence: FGIQEGTQCTKCK, peptide start residue: 19)”, the log2 fold change was 0.118.
For “UniProt Q8R0T6 (peptide sequence: LDQAHSVSQE, peptide start residue: 533)”, the log2 fold change was -0.0122.
Target “UniProt Q8R1F1 (peptide sequence: TDMDQIITSK, peptide start residue: 307)” has a log2 fold change of 0.601.
“UniProt Q8K370 (peptide sequence: TMAIPQDALEK, peptide start residue: 262)” was tested, and the log2 fold change was -0.331.
In the case of “UniProt Q8QZY1 (peptide sequence: IQLLVFK, peptide start residue: 488)”, the log2 fold change is reported as -0.38.
“UniProt Q8R0X7 (peptide sequence: TTGMGAIYGMAQATIDRK, peptide start residue: 519)” was tested, and the log2 fold change was 0.221.
